Record: PubChem BioAssay AID743454 (Peter MacCallum Cancer Centre, 2014)
Here is one part, drawn at random, of about 18,000 deposited reagents. 450 of them (2.5%) count as active. 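Single biological run; no consistent viability z cut-off exists, so the class columns, not z-scores, define the calls.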 Unmarked entries are inactive. Reagent sequences are not shown.

- Purpose: 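Knock-downs lowering viability or raising caspase 3/7 activity in vorinostat-treated resistant cells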 (primary screen)
- Cell system: human HCT116-VR colon cancer cells, selected for vorinostat resistance
- Knock-down reagent: siRNA pool against human genes, 40 nM siRNA pool
- Duration: vorinostat for 24 h, read-out about 72 h after transfection
- Treatment: vorinostat at 2.5 µM final
- Read-out: 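Cell viability by CellTiter-Fluor and caspase 3/7 activity by luminescence, each scaled to mock wells per plate, duplicates averaged, then robust z-scored over all plates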
- Direction: viability robust z-score: higher = more viable cells than screen typical; caspase robust z-score: higher = more caspase 3/7 activity than screen typical
- Active means: 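Hits are knock-downs in viability class RV1/RV2 or caspase class CA1/CA2, excluding ones that killed cells in the no-drug cell-count arm; hits then retested with single siRNAs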

target	viability hit class	caspase hit class	viability robust z-score	caspase robust z-score
C11orf52 (chromosome 11 open reading frame 52)	no change	no change	-1.54	0.66
JADE1 (jade family PHD finger 1)	no change	no change	0.28	1.06
PIGX (phosphatidylinositol glycan anchor biosynthesis class X)	no change	no change	-1.64	2.72
DSTYK (dual serine/threonine and tyrosine protein kinase)	no change	no change	0.49	-0.42
PON3 (paraoxonase 3)	no change	no change	0.32	0.5
SH3TC1 (SH3 domain and tetratricopeptide repeats 1)	no change	no change	0.24	-0.93
PRPF6 (pre-mRNA processing factor 6)	no change	no change	-2.37	-0.63
GNB5 (G protein subunit beta 5)	no change	no change	-1	0.92
SPRR2E (small proline rich protein 2E)	no change	no change	-1.87	-1.15
BARX1 (BARX homeobox 1)	no change	no change	-2.12	3.5
LRIG2 (leucine rich repeats and immunoglobulin like domains 2)	no change	no change	-2.66	0.13
LRIG3 (leucine rich repeats and immunoglobulin like domains 3)	no change	no change	0.39	0.43
GSTA5 (glutathione S-transferase alpha 5)	no change	no change	0.6	-0.17
XPC	no change	no change	0.86	-0.72
PRR15 (proline rich 15)	no change	no change	-0.5	1.17
PRPS1 (phosphoribosyl pyrophosphate synthetase 1)	no change	no change	-0.42	1.22
NR2E1 (nuclear receptor subfamily 2 group E member 1)	no change	no change	-0.33	-0.24
RUNDC3A (RUN domain containing 3A)	no change	no change	0.25	0.01
EDAR (ectodysplasin A receptor)	no change	no change	0.36	-0.99
HS3ST3B1 (heparan sulfate-glucosamine 3-sulfotransferase 3B1)	no change	no change	-2.48	4.13
ZNF268 (zinc finger protein 268)	no change	no change	-0.18	0.9
GPI (glucose-6-phosphate isomerase)	no change (active)	CA2 (caspase activation)	-2.2	5.19
TYRP1 (tyrosinase related protein 1)	no change	no change	1.3	0.12
CDH8 (cadherin 8)	no change	no change	-0.15	-0.39
BRICD5 (BRICHOS domain containing 5)	no change	no change	0.82	-0.2
HELLS (helicase, lymphoid specific)	no change	no change	0.64	-0.37
ATP6AP2 (ATPase H+ transporting accessory protein 2)	no change	no change	-0.42	-1.44
KIAA0930	no change	no change	1.56	-0.92
ASB1 (ankyrin repeat and SOCS box containing 1)	no change	no change	-0.55	0.76
RNF6 (ring finger protein 6)	no change	no change	0.48	0.17
CFC1B (cryptic, EGF-CFC family member 1B)	no change	no change	0.48	-0.68
PDZK1IP1 (PDZK1 interacting protein 1)	no change	no change	0.76	0.02
ABCA8 (ATP binding cassette subfamily A member 8)	no change	no change	-0.1	0.12
PITPNM1 (phosphatidylinositol transfer protein membrane associated 1)	no change	no change	0.04	0.31
LIMCH1 (LIM and calponin homology domains 1)	no change	no change	-0.45	-0.27
DMXL1 (Dmx like 1)	no change	no change	0.32	-0.55
TARBP1 (tRNA guanosine 2 -O-methyltransferase TARBP1)	no change	no change	0.5	3.08
AGFG1 (ArfGAP with FG repeats 1)	no change	no change	-0.44	0.36
IQCJ (IQ motif containing J)	no change	no change	-0.6	-0.57
MS4A10 (membrane spanning 4-domains A10)	no change	no change	0.35	2.91
MALL (mal, T cell differentiation protein like)	no change	no change	1.19	1.06
ZNF213 (zinc finger protein 213)	no change	no change	0.06	0.7
PIK3C3 (phosphatidylinositol 3-kinase catalytic subunit type 3)	no change	no change	0.36	2.59
PRMT5 (protein arginine methyltransferase 5)	no change	no change	0.98	-0.66
SH2B3 (SH2B adaptor protein 3)	no change	no change	2.26	1.75
CACNA1C (calcium voltage-gated channel subunit alpha1 C)	no change	no change	-1.48	0.27
CSGALNACT2 (chondroitin sulfate N-acetylgalactosaminyltransferase 2)	no change	no change	0.42	-0.94
IQCN (IQ motif containing N)	no change	no change	0.64	-1.07
FARP1 (FERM, ARH/RhoGEF and pleckstrin domain protein 1)	no change	no change	-0.92	1.42
SELENOH (selenoprotein H)	no change	no change	0.08	-1.02
ARHGEF25 (Rho guanine nucleotide exchange factor 25)	no change	no change	-0.5	0
GAB3 (GRB2 associated binding protein 3)	no change	no change	0.33	1.45
CCDC74A (coiled-coil domain containing 74A)	no change	no change	0.66	0.86
MTRR	no change	no change	0.46	-0.34
NUDT11 (nudix hydrolase 11)	no change	no change	-2.56	1.9
PLEKHO2 (pleckstrin homology domain containing O2)	no change	no change	-0.78	2.26
PDE4C (phosphodiesterase 4C)	no change	no change	-0.5	0.44

Ordered by “caspase robust z-score” (ascending): 4 of the entries above.
target	viability hit class	caspase hit class	viability robust z-score	caspase robust z-score
ZNF213 (zinc finger protein 213)	no change	no change	0.06	0.7
MALL (mal, T cell differentiation protein like)	no change	no change	1.19	1.06
PIK3C3 (phosphatidylinositol 3-kinase catalytic subunit type 3)	no change	no change	0.36	2.59
MS4A10 (membrane spanning 4-domains A10)	no change	no change	0.35	2.91
